B1: tRNA (parent)
chain: GUUCCGUUGGCGUAAUGGUAACGCGUCUCCCUCCUAAGGAGAAGACUGCGGGUUCGAGUCCCGUACGGAACG

Variants at the floor of the assay are shown more often than the library holds them. Bounds are passed on as bounds.

In this data set the parent is B1. Put plainly: yeast fitness relative to wild type (ratio to wild type); higher = fitter; tRNA-Arg(CCU), competitive growth, 37 C, YPD. The procedure, abridged:
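A pool of Saccharomyces cerevisiae strains, each with a tRNA-Arg(CCU) gene variant at the native genomic locus, was competed in YPD at 37°C for 24 hours across six parallel replicates. The variants had been chemically synthesised at a 3% per-site mutation rate over 69 sites, and gene amplicons before and after competition were read by 100-nucleotide paired-end sequencing. Darwinian fitness relative to wild type rested on changes in genotype frequencies. Genotypes required ≥ 100 starting reads, and estimates < 0.5 were set to 0.5.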
Take C4A G12A A45U: the yeast fitness came to 0.546.
Under A14C A45G stands 0.611; under U16A C29G A36C, at most 0.5.
As to U8C G17A G41C U64A A65C, the yeast fitness was at most 0.5.
Under A15U C24G G67C stands at most 0.5; under A15U C31A C49G A70C, at most 0.5; under G6A A45C G58A, 0.519.
Under A14U A42G stands 0.529; under C27A A45C C46A G51A C60U G67C A70G, at most 0.5; under A14G C30U C46A G50A, at most 0.5.
Under U35G C49A stands 0.595; under G25A G50C U54C, 0.627.
In the case of C22A C29U A42C, the yeast fitness was at most 0.5.
Under C22A G23C G48A G52A U53C C61A stands at most 0.5.
Under U32A C46U G52C A57U stands at most 0.5.
With C11A G44C G67C, the yeast fitness is at most 0.5.
In the case of C5U A21G C29U C31A G51C, the yeast fitness was at most 0.5.
Under G18C U26C C34U stands at most 0.5; under A20U C30G C33A G50A G52A C60U C61G, at most 0.5.
U7G U8C U28G A43C: the yeast fitness was at most 0.5.
As for C4U G9C A20U, the yeast fitness is at most 0.5.
Under A20C C46U G50C stands at most 0.5.
For G9C A15G C22G, the yeast fitness was at most 0.5.
Under U13A C27U C61A stands 0.619; under C4U G12A U28A A45U C62G A65G, at most 0.5; under C11G C30A A37G C46U A57C, at most 0.5.
Under A40U U54A C60G G67C stands 0.599; under C31U G51A G52C C60A, at most 0.5.
Turning to G10C C31G, the yeast fitness was 0.631.
Under G6A C11G C33G stands at most 0.5; under U3A C30G A42G, at most 0.5.
Consider A14G U26A C27G, for which the yeast fitness was at most 0.5.
Consider C27U C33U U47A A70C, for which the yeast fitness is at most 0.5.
Under C34U G52C stands at most 0.5.
Under C5A C31G A37G C55A stands at most 0.5; under C11G G48A C49G, 0.587.
Under U7C A37G C55A G58C stands at most 0.5; under G12A C33U A36C G51U A57G A69G, at most 0.5; under G6A A20U G68C, at most 0.5.
In the case of G9A C11A G58C, the yeast fitness is at most 0.5.
Under C4G C11G C49U C60U stands at most 0.5; under C11G G25A C29U C34U, at most 0.5.
Under G9C A21C C29U C66U stands at most 0.5; under C30G A40G U53A, at most 0.5; under U3C U13C C24U G52A G68U, at most 0.5.
Under C4U C11U C34G A40C G51C stands 0.534; under U2C G44A, 0.86; under C46U G51C C62U, at most 0.5.
Take U2G G58C C62G: the yeast fitness was at most 0.5.
Turning to G17C C31G A45C U54C C55A, the yeast fitness is at most 0.5.
With A21U C22G C33U A65C, the yeast fitness is at most 0.5.
As to U8C C27G A36G, the yeast fitness was at most 0.5.
For C11G A14U G17A C27G C62A, the yeast fitness was at most 0.5.
Under G6C C31G C61G A69G stands at most 0.5.
On to G9A C66G, for which the yeast fitness is 0.703.
Regarding A20C G25C A40C A43C C55A C61G C66G, the yeast fitness was at most 0.5.
Under C22G C60A C62U U64C stands at most 0.5; under G6A C11U C31G G51A G67A, at most 0.5; under G25C C29U A42U C61U, at most 0.5.
Under U8C C27G U64G A65G stands at most 0.5.
As for C24A C30U C55U, the yeast fitness was at most 0.5.
For the variant C5G G10U A21C A43U, the yeast fitness is at most 0.5.
Consider C5U C22A U26A C27G G48A, for which the yeast fitness is at most 0.5.
As for C5U U35A A45C, the yeast fitness came to 0.602.
Under C11U C24G C33A A40C U53C stands 0.626; under C4A C24G C33G A36C A37C A42C A65U, at most 0.5.
With C33G U47G G56A A57G A69U, the yeast fitness is at most 0.5.
Under A42C C49G G50A stands 0.507; under C5G C30G A65C C66U, at most 0.5; under G12C C29U, 0.85.
Under U28A U32C A43C A57C stands at most 0.5; under A40U A42C C66U, at most 0.5; under C24A A43G G52A A69U A70C, at most 0.5.
Under G10A G39A A65C C66G stands 0.556; under U16G C29U, 0.806; under C22G C29G A42U C61G, at most 0.5.
C27U A37G G48C U59C C62A: the yeast fitness is at most 0.5.
As to G23A U64C A65U, the yeast fitness was at most 0.5.
Under C5G U8G U26A stands at most 0.5; under G12C C29U G44A G51A G56A G63C, at most 0.5; under A36C A37U U54C A57G, at most 0.5.
Turning to A20U C34A, the yeast fitness stood at 0.7.
Under A37U A65U A69C stands at most 0.5; under G9A U16G U19C G25A U28C U54G A70C, at most 0.5; under C5G U26C C34G U53C U54C, at most 0.5.
G25C C27A C66U: the yeast fitness is at most 0.5.
Under G6C U7G A43U A65C stands 0.825.
Under C11U C33G A36G C49A A65G C66U stands at most 0.5; under C4U C11G G18C U47A G63A, at most 0.5; under C5G A70U, 0.812.
Under C24G C30G C66U stands at most 0.5; under A37C G52C G67A, at most 0.5.
Turning to G18C C27U U53G C66U, the yeast fitness was at most 0.5.
Turning to C33A U47A G56C, the yeast fitness was at most 0.5.
Under U7C U13A U16A U54A stands at most 0.5; under A42G C55G, 0.669; under G25C C27G A57G, at most 0.5.
With A20G A21G C24U U59C C62A, the yeast fitness is at most 0.5.
Under C5U A45U G51C stands at most 0.5.
In the case of C24U A57U C61U, the yeast fitness is at most 0.5.
G9A U26A A43U A65C: the yeast fitness is at most 0.5.
Under U13A C61U G67U stands at most 0.5; under C5G U47A A57C U64A, at most 0.5.
Under C5U C22U A37C A42U stands at most 0.5; under C24G U26A G41C, at most 0.5.
Turning to C5A C22G G67A A70G, the yeast fitness is at most 0.5.
Under U2G G9C A20G A42C C46G C49U A69C stands 0.576.
Under G10C C24A stands at most 0.5; under A37G G41C U47A, at most 0.5.
For the variant C11G C27U U53A U59A, the yeast fitness is at most 0.5.
As for C4U G39C G56C, the yeast fitness was at most 0.5.
Under C5U U19C U26A C55U stands at most 0.5; under C22U A36U C61A, at most 0.5; under C31G A57G G63A, at most 0.5.
Consider C24U C30G A45C A70C, for which the yeast fitness is at most 0.5.
Under G9C A43C C46G stands at most 0.5.
As for G9A G25A A43G, the yeast fitness is at most 0.5.
Under C27G G51A G67A stands at most 0.5; under C24U A37G G63C C66U A70C, at most 0.5; under C4U U32A A40C C62U, at most 0.5.
Consider U3G G9U G18A A20G A69U, for which the yeast fitness is at most 0.5.
Regarding U8A G18A C30A U32A U35G C66A, the yeast fitness was at most 0.5.
Consider C4A A57G C61U, for which the yeast fitness was at most 0.5.
Under C5U U19A G38C C62G G68C stands 0.62.
As to U3A C5A U8G G10A C46U A57C G68C A70U, the yeast fitness was at most 0.5.
Under C4A C31A A57U stands at most 0.5; under U16A C24U C34A, 0.656.
For the variant C11A C22A C29G, the yeast fitness amounted to 0.545.
Under C4A A21G C24G U26C C31U stands at most 0.5; under C49U C55A, 0.557.
As to A37U C49U U53C, the yeast fitness was at most 0.5.
Take A14G A15C G17A U32G A36U: the yeast fitness is at most 0.5.
Under C22U U32A G41A C55G stands at most 0.5; under C30A C46U G48A C55U U59A, at most 0.5.
As to U13A A14C C22A G48C A69C, the yeast fitness is at most 0.5.
Under C33A C34A U35C A36C G39C U47A U59C stands at most 0.5; under C24U U32A C33G C49U U53A C66U A70U, at most 0.5; under A15U A45U C46A G63A, at most 0.5.
As for A14U G17C U53G, the yeast fitness was found to be 0.603.
Consider C11G C49U C62U, for which the yeast fitness is 0.535.
Under G6A A20C C30U U32A A36U A37U C62U stands at most 0.5.
Under C5U C24A A45G C61G C62U stands at most 0.5.
Under C11U A15C C27A G39C G67U stands at most 0.5; under G10A C27G U35A A45U G67A, at most 0.5.
U7C C24G C49G: the yeast fitness is at most 0.5.
Under C11G C30G C31G U32A A57G C62A stands at most 0.5; under C29G U35A A36C G68A, at most 0.5.
On to C27U C30U A42G C66U, for which the yeast fitness was at most 0.5.
Under C4A C29U C31U U54G A65U G67A stands at most 0.5.
Under C5G A21G C27G C34G A43C C46G stands at most 0.5.
Regarding C27U C30U A42C A65G, the yeast fitness was at most 0.5.
In the case of G17A C33G C49A C62G, the yeast fitness is at most 0.5.
For the variant G18C C31U G52A, the yeast fitness is at most 0.5.
For the variant U2G G9C A20G A42C C46G C49U G67A A69U, the yeast fitness is at most 0.5.
Under C24U G39C U54A stands at most 0.5.
With G9A C31G C34U A57G, the yeast fitness is at most 0.5.
For G9A G56A A70C, the yeast fitness was found to be 1.03.
For the variant C27U G38C A40C A42C, the yeast fitness is at most 0.5.
C11U U16A U64A: the yeast fitness turned out to be 0.514.
Under U7G A15G stands 0.913; under U26G C27G C33U G39C C49U C66U, at most 0.5.
As to U3A C30G C66G, the yeast fitness is at most 0.5.
Under C27U G52A stands 0.7; under G12C C27A A37G C49U, at most 0.5; under C4U A37C, 0.884.
Consider A14U C29U A37U, for which the yeast fitness is at most 0.5.
Under U19C C22A U32A A37U A45C G50A U53C stands at most 0.5.
